What all share (assay): protein microarray (ProtoArray v5.0), streptavidin-Alexa Fluor 647
Holding throughout (conditions): 3'-biotin; 20 mM Tris (pH 7.5), 5 mM MgCl2, 100 mM KCl, 0.1% Tween-20, A/T-rich and random oligonucleotide blockers; temperature not stated; high values mean tight binding

Test [1] relates to IGLV2-14 (human).
In test [2] the test system is IGSF1 (human).
Test [3] relates to IHPK2 (human).
In test [4] the test system is IKIP (human).
The test system of test [5] is IL11RA (human).
The subject of test [6] is IL12A (human).
For test [7], the system named is IL17A (human).
Test [8] deals with IL18BP (human).
For test [9], the system named is IL1B (human).
For test [10], the system named is IL1F7 (human).

The other results are listed elsewhere or left out.

Turning to “GGGAGGCTGAGGCAGG [G4-1 biotinylated (PQS2)]”, the binding signal in test [1] was -0.333 z-score; in test [2] it was -0.315 z-score; in test [3], -0.317 z-score; in [4], -0.279 z-score; in [5], -0.268 z-score; in test [6], -0.341 z-score. The binding signal was -0.328 z-score in [7], -0.312 z-score in [8], -0.372 z-score in test [9] and -0.317 z-score in test [10].

The record behind these values is paper PMC5996148.
